Source: PubChem BioAssay AID1159578 (Peter MacCallum Cancer Centre, 2015)
The deposit covers about 18,000 reagents; below is an unselected part. In the full data, about 1,030 (5.7%) got an active call. 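Inactive calls also include pools with fewer than 3300 nuclei, whose migration was not assessed.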 The raw values are shown without normalisation. Further read-outs or replicates are left out here. Reagent sequences are not shown.

Assay: 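Knock-downs that alter how fast lymphatic endothelial cells migrate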 (primary screen)
Cells: human lymphatic endothelial cells
Reagent: siRNA pool against human genes, 40 nM
Duration: 48 h after transfection
Detection: 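High-content imaging of dye-stained cells in a scratch assay measures filled wound area and nuclei per well; duplicate means given as ratio to mock and robust z-score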
Direction: migration robust z-score: higher = faster migration into the scratch; nuclei per well: higher = more cells in the well
Call rule: 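Pools averaging fewer than 3300 nuclei are never called; remaining pools count as changed when migration robust z lies outside -2 to 2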
Calls: active = migration changed; inactive = no migration change, or too few cells

target	PubChem SID	migration robust z-score	nuclei per well, duplicate mean	outcome
PIGB (GeneID 9488)	SID255354315	0.36	7298	inactive
TRPC6 (GeneID 7225)	SID255352974	-0.29	5321	inactive
FERMT3 (GeneID 83706)	SID255361069	2.92	7426	active
PEX7 (GeneID 5191)	SID255351509	0.42	6840	inactive
RNGTT (GeneID 8732)	SID255353773	-0.13	4892	inactive
OTUD7B (GeneID 56957)	SID255359198	-0.08	4914	inactive
NELFCD (GeneID 51497)	SID255357748	-1.61	3024	inactive
ATP1A3 (GeneID 478)	SID255348443	1.2	5423	inactive
CPA3 (GeneID 1359)	SID255349056	-1.55	5142	inactive
ZNF18 (GeneID 7566)	SID255353193	1.15	6756	inactive
CIB1 (GeneID 10519)	SID255355145	-3.58	4454	active
EPS8L3 (GeneID 79574)	SID255360305	-0.44	5484	inactive
LRIG3 (GeneID 121227)	SID255362513	-0.51	5666	inactive
PPP2R1B (GeneID 5519)	SID255351745	-0.31	4866	inactive
NEK10 (GeneID 152110)	SID255363525	0.38	5877	inactive
GPS1 (GeneID 2873)	SID255350015	1.27	4404	inactive
CYSLTR2 (GeneID 57105)	SID255359267	-0.08	4285	inactive
ESCO2 (GeneID 157570)	SID255363626	-1.37	5398	inactive
RBP1 (GeneID 5947)	SID255352072	0.36	7328	inactive
CRYGN (GeneID 155051)	SID255363607	-0.89	5911	inactive
PDILT (GeneID 204474)	SID255364139	-0.87	6390	inactive
RPL28 (GeneID 6158)	SID255352187	-1.02	5632	inactive
CAMK2D (GeneID 817)	SID255348678	-1.53	4810	inactive
TBC1D29P (GeneID 26083)	SID255356655	0.64	5928	inactive
ARHGEF6 (GeneID 9459)	SID255354293	0.96	5374	inactive
SLC34A1 (GeneID 6569)	SID255352495	-0.75	3954	inactive
TP53TG3 (GeneID 24150)	SID255356446	-0.2	6541	inactive
ACTRT3 (GeneID 84517)	SID255361390	1.45	6032	inactive
BTBD1 (GeneID 53339)	SID255357911	-0.5	7166	inactive
PDK1 (GeneID 5163)	SID255351489	1.42	4736	inactive
AGPAT1 (GeneID 10554)	SID255355174	-0.1	4077	inactive
WFDC1 (GeneID 58189)	SID255359620	2.42	5177	active
SLC3A1 (GeneID 6519)	SID255352450	-0.2	3895	inactive
HAUS8 (GeneID 93323)	SID255362070	1.86	5908	inactive
C1QTNF3 (GeneID 114899)	SID255362271	1.8	6152	inactive
RNF181 (GeneID 51255)	SID255357592	-0.6	6214	inactive
S100A3 (GeneID 6274)	SID255352262	0.26	5180	inactive
PTF1A (GeneID 256297)	SID255364519	1.28	5686	inactive
SH2B3 (GeneID 10019)	SID255354747	0.78	5110	inactive
TREX1 (GeneID 11277)	SID255355730	1.12	5796	inactive
KLHL31 (GeneID 401265)	SID255365784	0.9	5780	inactive
IRF5 (GeneID 3663)	SID255350528	-0.93	4410	inactive
NRIP1 (GeneID 8204)	SID255353420	-0.44	5630	inactive
WRAP73 (GeneID 49856)	SID255357320	0.44	5922	inactive
FKBP6 (GeneID 8468)	SID255353575	0.42	6008	inactive
RRP9 (GeneID 9136)	SID255354065	-0.43	5366	inactive
OR52A1 (GeneID 23538)	SID255356312	0.26	6381	inactive
SLC24A5 (GeneID 283652)	SID255364698	0.02	5580	inactive
IGLL3P (GeneID 91353)	SID255361904	-0.71	5725	inactive
NABP1 (GeneID 64859)	SID255360036	-1.08	4922	inactive
HHAT (GeneID 55733)	SID255358814	0.78	4522	inactive
LHX3 (GeneID 8022)	SID255353366	-0.57	5730	inactive
ACSS3 (GeneID 79611)	SID255360329	-0.76	6316	inactive
SLC6A17 (GeneID 388662)	SID255365513	0.39	6035	inactive
ASB1 (GeneID 51665)	SID255357843	-0.62	5724	inactive
EEF2K (GeneID 29904)	SID255357206	-1.38	4547	inactive
COPRS (GeneID 55352)	SID255358625	-0.68	5434	inactive
TIPE1 (GeneID 126282)	SID255362697	0.42	3958	inactive
TMEM242 (GeneID 729515)	SID255366201	-1.94	3976	inactive
PYGM (GeneID 5837)	SID255351993	-1.55	3675	inactive
ALPG (GeneID 251)	SID255348284	0.36	4217	inactive
SLCO2A1 (GeneID 6578)	SID255352503	0.94	6610	inactive
ERP29 (GeneID 10961)	SID255355482	2.46	6766	active
FCGR3A (GeneID 2214)	SID255349648	-0.57	3570	inactive
HGH1 (GeneID 51236)	SID255357579	1.74	4356	inactive
UBALD1 (GeneID 124402)	SID255362610	-1.73	6176	inactive
MST1 (GeneID 4485)	SID255351041	0.96	5204	inactive
CLDN16 (GeneID 10686)	SID255355286	1.12	5472	inactive
IGFL4 (GeneID 444882)	SID255365980	-1.5	5546	inactive
FRMD1 (GeneID 79981)	SID255360608	1.75	6156	inactive
DHRS12 (GeneID 79758)	SID255360445	-0.31	6028	inactive
SYNGR2 (GeneID 9144)	SID255354072	-2.46	5636	active
CTNNBL1 (GeneID 56259)	SID255359063	0.04	5574	inactive

No new results follow: an excerpt of the list.
target	PubChem SID	migration robust z-score	nuclei per well, duplicate mean	outcome
CRYGN (GeneID 155051)	SID255363607	-0.89	5911	inactive
PDILT (GeneID 204474)	SID255364139	-0.87	6390	inactive
RPL28 (GeneID 6158)	SID255352187	-1.02	5632	inactive
CAMK2D (GeneID 817)	SID255348678	-1.53	4810	inactive
TBC1D29P (GeneID 26083)	SID255356655	0.64	5928	inactive
ARHGEF6 (GeneID 9459)	SID255354293	0.96	5374	inactive
SLC34A1 (GeneID 6569)	SID255352495	-0.75	3954	inactive
TP53TG3 (GeneID 24150)	SID255356446	-0.2	6541	inactive
ACTRT3 (GeneID 84517)	SID255361390	1.45	6032	inactive
BTBD1 (GeneID 53339)	SID255357911	-0.5	7166	inactive
PDK1 (GeneID 5163)	SID255351489	1.42	4736	inactive
